Source: publication PMC3854864
These are yes or no findings as the source states them, for the method shown. Binding seen in cells or lysates may run through a third protein. Some results given as binding are weak or reduced against the parent protein; the word gives no strength.

T1: Cdc55 (Pk3-Cdc55), regulatory subunit of PP2A^Cdc55 phosphatase (S. cerevisiae (endogenous in W303 derivatives)) (UniProt Q00362)
T1 sequence: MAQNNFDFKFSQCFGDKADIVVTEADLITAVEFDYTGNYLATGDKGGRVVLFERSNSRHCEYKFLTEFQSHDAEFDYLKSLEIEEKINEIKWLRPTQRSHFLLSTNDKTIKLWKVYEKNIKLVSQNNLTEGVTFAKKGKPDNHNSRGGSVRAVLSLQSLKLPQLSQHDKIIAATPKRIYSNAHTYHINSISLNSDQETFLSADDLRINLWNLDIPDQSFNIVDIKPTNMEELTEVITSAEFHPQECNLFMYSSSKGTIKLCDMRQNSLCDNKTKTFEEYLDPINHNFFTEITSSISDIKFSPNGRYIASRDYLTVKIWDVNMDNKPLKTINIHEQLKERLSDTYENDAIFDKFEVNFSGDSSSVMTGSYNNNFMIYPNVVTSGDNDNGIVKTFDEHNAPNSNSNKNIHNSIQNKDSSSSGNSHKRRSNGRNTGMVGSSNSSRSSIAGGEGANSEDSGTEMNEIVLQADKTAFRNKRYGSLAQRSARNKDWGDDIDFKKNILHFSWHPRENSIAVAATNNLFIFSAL

B1: Bfa1 (Bfa1-HA6) (protein, UniProt P47113 1-574)
chain: MSIRPLTLNGLDEPETSFEELNTTLPRFQSHETLTLEENVPPLSTSTYIPPPSSVGTSDTGTVFSNSTSAFWSNKQADDDQDMEVDQDDEFLNDFQEFQNKKDDFDDAIKTNFHLRNGCRTGPFKNDIFAEEFDRKLSLEDKPRLKQPRSMMELKPKRKLSNSVTSRNLRSGNSVRFKKSMPNLALVNPAIREEEEDEEREREDQREFNYKIDNDTQDTILAKFSSDDEGDFLTGFEELEGEAIDETISSNDKESADHPRFLKKSSSSLPLKISPAQYDIVKHDELLTPGLHRRQRDWNTQQELDSFKEKRSVRHCSNQNVQLNGPAKIKTIKQQIDHNTPMKKGSMIYNPKTMKWEGNENVLSKFSDVDTANRKALLIKNKLQRDADSKKQKYSDLQHARATSRNQKVIGNMILDEQNLRWVSVSEEEADPFAGIPEINLPPVGKSMKKRSSSPFLRSKSQVNTPFVSNDNDGVYQSTAAQARLRKYHSMRTLNGTTETPEISSTFHLSSRALEKFYHEENRWCKKLASWFIPRDETIISVDEETIMDESTVNSKRKSYMYEIRNMVINSTKD
B2: Mob1 (Mob1-HA6) (protein, UniProt P40484 1-314)
chain: MSFLQNFHISPGQTIRSTRGFKWNTANAANNAGSVSPTKATPHNNTINGNNNNANTINNRADFTNNPVNGYNESDHGRMSPVLTTPKRHAPPPEQLQNVTDFNYTPSHQKPFLQPQAGTTVTTHQDIKQIVEMTLGSEGVLNQAVKLPRGEDENEWLAVHCVDFYNQINMLYGSITEFCSPQTCPRMIATNEYEYLWAFQKGQPPVSVSAPKYVECLMRWCQDQFDDESLFPSKVTGTFPEGFIQRVIQPILRRLFRVYAHIYCHHFNEILELNLQTVLNTSFRHFCLFAQEFELLRPADFGPLLELVMELRDR

Biological target: T1, Cdc55 (Pk3-Cdc55), regulatory subunit of PP2A^Cdc55 phosphatase (S. cerevisiae (endogenous in W303 derivatives))
Assay: co-IP; yeast protein extracts (glass-bead lysis) incubated with anti-Pk antibody (SV5-Pk1) to precipitate Pk3-Cdc55, adsorbed onto protein-A Dynabeads, washed in extraction buffer, eluted with SDS-PAGE loading buffer; 2x10^9 cells for Mob1 and 3.2x10^10 cells for Bfa1; control extracts lacking the Pk epitope on Cdc55; for Bfa1 also pph3Δ pph21Δ pph22-172 cells at 37°C for 120 min and metaphase-arrested cells with separase induced for 120 min

Binder	binding
B1	binds
B2	binds
